Experimental data taken from the supplement of paper PMC10849652.
The other results are listed elsewhere or left out.

The chains behind the UniProt entries cited, without tags or fusion partners. Where a name states a change or a piece, a line headed by the entry shows the natural chain unless it says otherwise.
UniProt O76064: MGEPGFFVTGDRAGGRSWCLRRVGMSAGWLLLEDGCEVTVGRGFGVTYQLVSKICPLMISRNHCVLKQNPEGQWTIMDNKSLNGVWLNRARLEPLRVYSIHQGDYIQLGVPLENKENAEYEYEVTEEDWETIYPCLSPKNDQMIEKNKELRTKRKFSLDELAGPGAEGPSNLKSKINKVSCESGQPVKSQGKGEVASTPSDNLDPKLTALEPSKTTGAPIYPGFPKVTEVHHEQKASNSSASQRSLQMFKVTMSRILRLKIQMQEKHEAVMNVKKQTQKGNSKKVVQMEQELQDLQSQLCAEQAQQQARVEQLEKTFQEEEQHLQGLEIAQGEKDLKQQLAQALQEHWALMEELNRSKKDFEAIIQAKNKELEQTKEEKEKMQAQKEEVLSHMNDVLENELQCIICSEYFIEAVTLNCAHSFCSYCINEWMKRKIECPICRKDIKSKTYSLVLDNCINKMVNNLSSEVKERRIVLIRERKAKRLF
UniProt O43567: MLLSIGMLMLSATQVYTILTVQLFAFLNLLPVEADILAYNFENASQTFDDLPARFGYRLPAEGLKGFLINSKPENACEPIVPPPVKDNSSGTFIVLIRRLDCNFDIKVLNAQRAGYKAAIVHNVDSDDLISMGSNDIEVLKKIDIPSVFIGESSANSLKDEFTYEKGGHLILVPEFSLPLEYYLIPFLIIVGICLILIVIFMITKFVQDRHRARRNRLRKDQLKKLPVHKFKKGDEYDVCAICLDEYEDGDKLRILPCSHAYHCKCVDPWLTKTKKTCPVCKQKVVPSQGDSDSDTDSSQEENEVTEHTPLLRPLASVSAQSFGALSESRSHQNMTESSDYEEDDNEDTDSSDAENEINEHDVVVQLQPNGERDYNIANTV
UniProt Q8NCN4: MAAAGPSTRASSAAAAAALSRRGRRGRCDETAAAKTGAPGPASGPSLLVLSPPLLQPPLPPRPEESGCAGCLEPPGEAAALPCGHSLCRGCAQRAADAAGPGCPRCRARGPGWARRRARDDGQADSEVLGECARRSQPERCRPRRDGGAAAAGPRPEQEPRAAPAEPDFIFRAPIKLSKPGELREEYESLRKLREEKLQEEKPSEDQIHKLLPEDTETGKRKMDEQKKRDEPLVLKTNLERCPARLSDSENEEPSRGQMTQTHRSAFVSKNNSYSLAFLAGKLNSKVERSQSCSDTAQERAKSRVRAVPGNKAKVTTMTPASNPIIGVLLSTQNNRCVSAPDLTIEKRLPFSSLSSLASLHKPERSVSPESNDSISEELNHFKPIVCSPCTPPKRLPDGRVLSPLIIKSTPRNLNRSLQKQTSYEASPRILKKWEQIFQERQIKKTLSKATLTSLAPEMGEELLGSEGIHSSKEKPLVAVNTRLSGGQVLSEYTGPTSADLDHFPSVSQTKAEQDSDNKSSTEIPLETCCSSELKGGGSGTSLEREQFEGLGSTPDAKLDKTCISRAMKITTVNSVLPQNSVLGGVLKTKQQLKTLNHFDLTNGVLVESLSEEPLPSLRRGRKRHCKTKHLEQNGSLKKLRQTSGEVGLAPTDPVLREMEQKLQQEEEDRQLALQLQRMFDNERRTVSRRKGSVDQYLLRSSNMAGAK
UniProt Q9GZN7, whole entry, looked up: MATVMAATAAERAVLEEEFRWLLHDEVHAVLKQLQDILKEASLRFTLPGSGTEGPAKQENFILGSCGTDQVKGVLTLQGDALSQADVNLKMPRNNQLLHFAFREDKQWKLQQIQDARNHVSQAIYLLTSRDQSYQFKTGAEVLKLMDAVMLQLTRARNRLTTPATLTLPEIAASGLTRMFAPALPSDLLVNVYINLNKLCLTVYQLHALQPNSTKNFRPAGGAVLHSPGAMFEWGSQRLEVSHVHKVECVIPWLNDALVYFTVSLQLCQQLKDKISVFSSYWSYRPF
UniProt P60602: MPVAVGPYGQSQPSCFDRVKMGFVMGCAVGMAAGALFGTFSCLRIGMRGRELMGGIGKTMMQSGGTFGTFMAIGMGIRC
UniProt Q9HCK4: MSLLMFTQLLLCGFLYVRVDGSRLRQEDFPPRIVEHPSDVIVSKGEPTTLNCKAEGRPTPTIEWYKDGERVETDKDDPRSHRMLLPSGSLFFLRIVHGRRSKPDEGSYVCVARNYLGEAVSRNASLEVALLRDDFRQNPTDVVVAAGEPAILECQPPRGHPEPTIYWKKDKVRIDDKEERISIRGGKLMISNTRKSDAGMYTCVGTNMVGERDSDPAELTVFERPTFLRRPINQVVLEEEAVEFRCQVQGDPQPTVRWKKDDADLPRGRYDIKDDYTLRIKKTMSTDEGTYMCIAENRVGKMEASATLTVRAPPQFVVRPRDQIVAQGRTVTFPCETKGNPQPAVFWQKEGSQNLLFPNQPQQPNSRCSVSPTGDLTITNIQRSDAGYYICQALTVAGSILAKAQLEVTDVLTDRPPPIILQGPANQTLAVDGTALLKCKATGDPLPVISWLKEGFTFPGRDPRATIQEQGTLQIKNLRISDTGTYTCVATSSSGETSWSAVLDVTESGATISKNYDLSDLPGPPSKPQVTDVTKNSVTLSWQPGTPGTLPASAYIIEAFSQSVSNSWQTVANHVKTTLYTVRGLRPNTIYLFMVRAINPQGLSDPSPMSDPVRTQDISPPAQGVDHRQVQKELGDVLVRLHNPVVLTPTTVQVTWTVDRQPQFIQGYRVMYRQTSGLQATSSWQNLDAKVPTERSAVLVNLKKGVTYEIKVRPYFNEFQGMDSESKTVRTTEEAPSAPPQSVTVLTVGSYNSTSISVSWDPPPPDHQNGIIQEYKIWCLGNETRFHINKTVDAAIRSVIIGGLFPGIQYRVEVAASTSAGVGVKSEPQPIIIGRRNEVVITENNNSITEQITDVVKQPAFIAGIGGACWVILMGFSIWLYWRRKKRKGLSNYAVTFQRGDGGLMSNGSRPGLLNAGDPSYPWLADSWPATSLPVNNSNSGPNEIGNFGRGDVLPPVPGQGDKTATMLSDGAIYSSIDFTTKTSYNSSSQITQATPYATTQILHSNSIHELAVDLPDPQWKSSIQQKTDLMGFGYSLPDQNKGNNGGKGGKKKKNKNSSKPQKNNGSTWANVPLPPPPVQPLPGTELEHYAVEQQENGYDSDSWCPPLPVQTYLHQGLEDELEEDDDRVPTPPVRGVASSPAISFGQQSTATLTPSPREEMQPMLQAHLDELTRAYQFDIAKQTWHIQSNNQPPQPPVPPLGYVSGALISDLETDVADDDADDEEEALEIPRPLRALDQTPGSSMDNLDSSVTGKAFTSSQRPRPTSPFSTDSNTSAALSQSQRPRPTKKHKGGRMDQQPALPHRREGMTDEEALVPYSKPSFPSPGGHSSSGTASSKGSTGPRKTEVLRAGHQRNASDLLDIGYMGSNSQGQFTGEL
UniProt Q86UA6: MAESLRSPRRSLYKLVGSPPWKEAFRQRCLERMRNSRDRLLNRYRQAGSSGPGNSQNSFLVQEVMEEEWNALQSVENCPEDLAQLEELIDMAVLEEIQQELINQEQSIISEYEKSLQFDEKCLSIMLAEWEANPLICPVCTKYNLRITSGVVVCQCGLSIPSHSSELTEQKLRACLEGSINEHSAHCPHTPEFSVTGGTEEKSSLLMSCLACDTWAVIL
UniProt Q9Y4L5, whole entry, looked up: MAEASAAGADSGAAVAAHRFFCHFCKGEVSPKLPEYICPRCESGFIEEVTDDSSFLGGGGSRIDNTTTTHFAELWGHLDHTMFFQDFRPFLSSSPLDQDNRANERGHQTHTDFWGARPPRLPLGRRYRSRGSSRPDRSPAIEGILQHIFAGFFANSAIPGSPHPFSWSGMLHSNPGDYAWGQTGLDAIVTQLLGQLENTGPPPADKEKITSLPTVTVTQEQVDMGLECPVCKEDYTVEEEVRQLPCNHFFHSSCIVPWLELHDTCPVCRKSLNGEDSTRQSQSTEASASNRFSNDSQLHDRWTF
UniProt Q96G75, whole entry, looked up: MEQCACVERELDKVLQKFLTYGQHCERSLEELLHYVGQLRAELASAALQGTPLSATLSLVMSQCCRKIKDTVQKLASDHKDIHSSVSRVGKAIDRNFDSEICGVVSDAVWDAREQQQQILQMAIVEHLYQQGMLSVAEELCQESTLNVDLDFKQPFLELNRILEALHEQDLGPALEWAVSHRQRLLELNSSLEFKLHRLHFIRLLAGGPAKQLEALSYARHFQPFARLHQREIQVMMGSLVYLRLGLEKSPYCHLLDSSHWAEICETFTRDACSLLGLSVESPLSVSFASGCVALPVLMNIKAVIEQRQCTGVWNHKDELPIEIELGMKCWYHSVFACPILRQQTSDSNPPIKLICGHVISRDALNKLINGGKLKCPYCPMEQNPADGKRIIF
UniProt P08922: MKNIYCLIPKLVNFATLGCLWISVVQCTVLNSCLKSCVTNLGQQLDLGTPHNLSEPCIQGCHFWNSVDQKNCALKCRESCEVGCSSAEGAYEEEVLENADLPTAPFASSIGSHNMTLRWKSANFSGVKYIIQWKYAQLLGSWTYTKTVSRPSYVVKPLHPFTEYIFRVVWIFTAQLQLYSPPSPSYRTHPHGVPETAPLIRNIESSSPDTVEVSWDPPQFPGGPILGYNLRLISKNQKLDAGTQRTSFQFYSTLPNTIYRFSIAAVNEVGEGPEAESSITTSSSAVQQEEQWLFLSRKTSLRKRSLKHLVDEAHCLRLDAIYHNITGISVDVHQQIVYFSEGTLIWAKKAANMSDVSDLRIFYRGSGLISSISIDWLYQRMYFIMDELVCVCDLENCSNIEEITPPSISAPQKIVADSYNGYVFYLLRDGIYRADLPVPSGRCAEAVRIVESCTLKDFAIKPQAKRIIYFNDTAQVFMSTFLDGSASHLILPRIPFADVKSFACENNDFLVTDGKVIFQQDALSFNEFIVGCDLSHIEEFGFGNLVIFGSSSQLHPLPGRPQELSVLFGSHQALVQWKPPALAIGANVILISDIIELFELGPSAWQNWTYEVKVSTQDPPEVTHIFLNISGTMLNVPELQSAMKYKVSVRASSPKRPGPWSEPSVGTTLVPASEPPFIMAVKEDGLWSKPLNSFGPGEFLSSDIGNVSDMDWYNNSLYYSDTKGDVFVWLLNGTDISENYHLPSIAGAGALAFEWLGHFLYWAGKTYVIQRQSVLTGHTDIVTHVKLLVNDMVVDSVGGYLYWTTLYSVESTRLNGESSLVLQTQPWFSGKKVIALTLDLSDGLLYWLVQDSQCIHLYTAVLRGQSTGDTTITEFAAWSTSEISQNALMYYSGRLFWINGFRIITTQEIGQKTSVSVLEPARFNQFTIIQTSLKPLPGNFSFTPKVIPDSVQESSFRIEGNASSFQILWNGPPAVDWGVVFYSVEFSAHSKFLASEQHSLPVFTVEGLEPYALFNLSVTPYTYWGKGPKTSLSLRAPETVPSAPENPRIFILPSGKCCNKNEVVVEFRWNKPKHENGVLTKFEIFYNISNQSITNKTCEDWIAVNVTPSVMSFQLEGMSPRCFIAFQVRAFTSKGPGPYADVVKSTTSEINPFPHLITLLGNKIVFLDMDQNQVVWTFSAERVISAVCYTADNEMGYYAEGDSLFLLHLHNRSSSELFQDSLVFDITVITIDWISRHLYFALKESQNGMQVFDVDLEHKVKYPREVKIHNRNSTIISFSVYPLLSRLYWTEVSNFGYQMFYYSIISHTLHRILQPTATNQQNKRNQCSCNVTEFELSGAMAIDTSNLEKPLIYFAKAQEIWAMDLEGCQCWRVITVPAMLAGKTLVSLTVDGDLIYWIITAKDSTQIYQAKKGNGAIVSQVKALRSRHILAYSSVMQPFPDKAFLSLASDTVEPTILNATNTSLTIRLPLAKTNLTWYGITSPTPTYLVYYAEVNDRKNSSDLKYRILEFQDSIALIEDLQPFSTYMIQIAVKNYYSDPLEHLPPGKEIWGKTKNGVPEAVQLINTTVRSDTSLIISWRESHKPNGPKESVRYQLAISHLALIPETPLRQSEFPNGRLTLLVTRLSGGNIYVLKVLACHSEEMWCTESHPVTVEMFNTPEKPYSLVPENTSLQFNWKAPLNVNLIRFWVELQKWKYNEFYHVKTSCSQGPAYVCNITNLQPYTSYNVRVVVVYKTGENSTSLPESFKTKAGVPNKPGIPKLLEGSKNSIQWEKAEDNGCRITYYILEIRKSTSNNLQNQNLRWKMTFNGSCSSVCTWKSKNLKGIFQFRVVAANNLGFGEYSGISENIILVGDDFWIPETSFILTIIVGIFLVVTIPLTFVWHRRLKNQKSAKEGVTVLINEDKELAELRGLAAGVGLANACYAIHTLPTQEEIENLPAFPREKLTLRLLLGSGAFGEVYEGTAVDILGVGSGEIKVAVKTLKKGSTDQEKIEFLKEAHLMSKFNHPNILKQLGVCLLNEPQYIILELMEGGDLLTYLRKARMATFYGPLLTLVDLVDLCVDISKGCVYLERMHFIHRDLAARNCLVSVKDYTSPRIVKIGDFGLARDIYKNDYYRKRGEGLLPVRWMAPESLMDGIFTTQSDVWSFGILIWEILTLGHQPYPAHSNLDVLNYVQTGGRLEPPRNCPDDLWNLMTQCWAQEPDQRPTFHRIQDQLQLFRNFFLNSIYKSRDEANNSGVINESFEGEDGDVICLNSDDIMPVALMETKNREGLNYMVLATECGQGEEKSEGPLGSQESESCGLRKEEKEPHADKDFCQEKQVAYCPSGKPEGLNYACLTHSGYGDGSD

Compound: CNC(=O)C1=CC=CC=C1NC2=NC(=NC=C2Cl)NC3=C(C=C(C=C3)N4CCOCC4)OC
Experiment: log2 fold change, soluble protein after heating vs DMSO (PISA); higher = thermal stabilisation; K562 lysate, 10 uM; active = over 0.2 and 3.5 SD of the protein, either way, in both replicates (recomputed)
How it was run: (§1)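 Dounce homogenisation of K562 pellets in PBS pH 7.4 with 1 mM MgCl2 produced a crude extract, used at 1 mg/mL protein. Exposure to 10 μM compound lasted 30 min, and aliquots were then heated for 3 min across 48°C-58°C, pooled and brought to 0.5% NP-40 at 4°C. The supernatant after 21,000xg for 90 min was quantified by TMTpro 16plex LC-MS/MS with channel sums equalised. Duplicate values are given as log-two fold change in thermal stability relative to solvent controls.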

Target	log2 fold change
RNF185 (UniProt Q96GF1)	inactive: 0.092
RHOBTB3 (UniProt O94955)	inactive: -0.152
RNF8 (UniProt O76064)	inactive: 0.083
RILPL2 (UniProt Q969X0)	inactive: 0.023
RHOXF2B (UniProt P0C7M4)	inactive: 0.138
RMI2 (UniProt Q96E14)	inactive: -0.074
RNF13 (UniProt O43567)	inactive: -0.05
RNF169 (UniProt Q8NCN4)	inactive: 0.047
RNF24 isoform 2 (UniProt Q9Y225)	inactive: 0.003
RP9 (UniProt Q8TA86)	inactive: -0.027
RNF139 (UniProt Q8WU17)	inactive: -0.016
RPL10, A0A087WV22	inactive: -0.542
RNF121 (UniProt Q9H920)	inactive: 0.028
ROGDI (UniProt Q9GZN7)	inactive: -0.145
ROMO1 (UniProt P60602)	inactive: -0.133
RNF41 (UniProt Q9H4P4)	inactive: -0.01
RNF10 isoform 2 (UniProt Q8N5U6)	inactive: 0.157
RNPC3 (UniProt Q96LT9)	inactive: -0.047
RNASE4 (UniProt P34096)	inactive: 0.06
RNF17 (UniProt Q9BXT8)	inactive: 0.096
ROBO2 isoform 3 (UniProt Q9HCK4)	inactive: 0.03
RNF170 (UniProt Q96K19)	inactive: -0.137
RPL15, A0A2R8Y738	inactive: -0.03
RHPN2 (UniProt Q8IUC4)	inactive: 0.041
RPL32 (UniProt D3YTI8)	inactive: -0.068

Compound: CNC(=O)c1ccc(Nc2ncc(C(F)(F)F)c(NCc3nccnc3N(C)S(C)(=O)=O)n2)cc1 [defactinib]
Experiment: as above
How it was run: as §1

Target	log2 fold change
RPAIN isoform 8 (UniProt Q86UA6)	inactive: -0.014
RNF138 (UniProt Q8WVD3)	inactive: -0.047
RHOXF2B (UniProt P0C7M4)	inactive: 0.086
RMI2 (UniProt Q96E14)	inactive: 0.265
RNF4 (UniProt P78317)	inactive: -0.13
RP9 (UniProt Q8TA86)	inactive: -0.061
RNF115 (UniProt Q9Y4L5)	inactive: -0.025
RNF139 (UniProt Q8WU17)	inactive: 0.117
ROMO1 (UniProt P60602)	inactive: 0.018
RHOQ (UniProt P17081)	inactive: -0.031
RNF130 (UniProt Q86XS8)	inactive: 0.159
RMND5B (UniProt Q96G75)	inactive: 0.005
ROS1 (UniProt P08922)	inactive: -0.175
RNASE4 (UniProt P34096)	inactive: -0.039
RNF170 (UniProt Q96K19)	inactive: 0.027
